From patent US20120101083A1, “S1P1 AGONISTS COMPRISING A BICYCLIC N-CONTAINING RING” (GLAXO GROUP LIMITED, priority 2009, published 2012)
Some entries share one result that the patent states for a list of compounds.

Amino acid sequences for entries named in this document (tags omitted).
UniProt P21453, whole entry: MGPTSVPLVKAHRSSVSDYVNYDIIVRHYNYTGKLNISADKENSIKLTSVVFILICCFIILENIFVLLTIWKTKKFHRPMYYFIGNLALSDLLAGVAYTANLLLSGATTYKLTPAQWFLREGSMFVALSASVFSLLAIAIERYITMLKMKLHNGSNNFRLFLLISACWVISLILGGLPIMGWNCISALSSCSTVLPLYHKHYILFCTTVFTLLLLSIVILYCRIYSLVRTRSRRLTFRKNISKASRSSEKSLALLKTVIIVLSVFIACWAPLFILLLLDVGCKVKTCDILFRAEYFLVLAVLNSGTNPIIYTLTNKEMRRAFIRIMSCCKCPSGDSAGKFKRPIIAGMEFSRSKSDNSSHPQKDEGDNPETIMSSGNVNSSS

Biological target: T1, S1P1 (PathHunter CHO-K1 EDG1 β-Arrestin cell line) (Homo sapiens, UniProt P21453)
T1 construct: host or cells: PathHunter CHO-K1 EDG1 β-Arrestin cell line
Assay: S1P-1 β-Arrestin recruitment assay
Assay type: cell-based
Conditions: CHO-K1 EDG1 β-Arrestin cells, chemi-luminescence
Method: S1P-1 β-Arrestin Recruitment Assay
β-Arrestin recruitment assays were carried out using the PathHunter CHO-K1 EDG1
β-Arrestin cell line (DiscoveRx Corporation) in a chemi-luminescence detection assay. This cell line stably expresses β-Arrestin 2 and S1P1 fused to complementing portions of β-galactosidase (‘EA’ and ‘pro-link’, respectively) which associate upon Arrestin recruitment to form functional β-galactosidase enzyme.
Cells were grown to 80% confluency in Growth Medium (F12 nutrient HAMS supplemented with 10% heat-inactivated USA FBS, 1% L-glutamax, 800 μg/ml Geneticin and 300 μg/ml Hygromycin). Cells were harvested from the flask using Enzyme Free Cell Dissociation Buffer (Gibco) and washed from flasks with Optimem solution (Gibco). Cells were then centrifuged at 1000 rpm for 2-3 min and resuspended in Assay Buffer (Prepared from Sigma kit H1387 supplemented with 20 ml/L HEPES, 4.7 ml/L NaHCO3, 0.1% pluronic acid F-68 solution, 0.1% BSA and adjusted to pH 7.4 using sodium hydroxide at 1×10^6 cells/ml. Cells were dispensed into assay plates containing compounds (100n1/well of a solution of test compound in 100% DMSO) at 1×10^4 cells/well and incubated at 37° C./5% CO2 for 90 min followed by 15 min at room temperature. 5 μl detection mix (1 part Galacton Star, 5 parts Emerald II, 19 parts Assay Buffer; DiscoveRx) were added per well and the plates incubated at room temperature for 60 min. Luminescence was quantified using a Viewlux plate reader.

pEC50, ≥ 7:
Cc1c(-c2noc(-c3cnc(NC(C)C)c(C#N)c3)n2)ccc2c1CCN(C(CO)CO)CC2.Cl [Example 175, 5-(3-{3-[2-hydroxy-1-(hydroxymethyl)ethyl]-6-methyl-2,3,4,5-tetrahydro-1H-3-benzazepin-7-yl}-1,2,4-oxadiazol-5-yl)-2-[(1-methylethyl)amino]-3-pyridinecarbonitrile hydrochloride]
CCCNc1ccc(-c2nc(-c3ccc4c(c3)CCN(CC(O)CO)CC4)no2)cc1C#N (centres unmarked) [Example 50, 5-{3-[3-(2,3-dihydroxypropyl)-2,3,4,5-tetrahydro-1H-3-benzazepin-7-yl]-1,2,4-oxadiazol-5-yl}-2-(propylamino)benzonitrile]
COC(=O)NCCCN1CCc2ccc(-c3noc(-c4ccc(OC(C)C)c(C#N)c4)n3)cc2CC1 [Example 102, methyl {3-[7-(5-{3-cyano-4-[(1-methylethyl)oxy]phenyl}-1,2,4-oxadiazol-3-yl)-1,2,4,5-tetrahydro-3H-3-benzazepin-3-yl]propyl}carbamate]
CC(C)Oc1ccc(-c2nc(-c3ccc4c(c3)CCN(CC(=O)NCC(O)C(F)(F)F)CC4)no2)cc1C#N (centres unmarked) [Example 185, 2-[7-(5-{3-cyano-4-[(1-methylethyl)oxy]phenyl}-1,2,4-oxadiazol-3-yl)-1,2,4,5-tetrahydro-3H-3-benzazepin-3-yl]-N-(3,3,3-trifluoro-2-hydroxypropyl)acetamide]
CCCOc1ccc(-c2nc(-c3ccc4c(c3)CCN(CC(O)CO)CC4)no2)cc1C#N (centres unmarked) [Example 51, 5-{3-[3-(2,3-dihydroxypropyl)-2,3,4,5-tetrahydro-1H-3-benzazepin-7-yl]-1,2,4-oxadiazol-5-yl}-2-(propyloxy)benzonitrile]
CC(C)Nc1ccc(-c2nc(-c3ccc4c(c3)CCN(CC(O)CO)CC4)no2)cc1C#N (centres unmarked) [Example 49, 5-{3-[3-(2,3-dihydroxypropyl)-2,3,4,5-tetrahydro-1H-3-benzazepin-7-yl]-1,2,4-oxadiazol-5-yl}-2-[(1-methylethyl)amino]benzonitrile]
CC(C)Oc1ccc(-c2nc(-c3ccc4c(c3)CCN(C(=O)[C@H](N)[C@@H](C)O)CC4)no2)cc1C#N [Example 58, 5-[3-(3-D-allothreonyl-2,3,4,5-tetrahydro-1H-3-benzazepin-7-yl)-1,2,4-oxadiazol-5-yl]-2-[(1-methylethyl)oxy]benzonitrile]
CC(C)Oc1ncc(-c2nc(-c3ccc4c(c3)CCN(C[C@H](O)CO)CC4)no2)cc1C#N [Example 96, 5-(3-{3-[(2S)-2,3-dihydroxypropyl]-2,3,4,5-tetrahydro-1H-3-benzazepin-7-yl}-1,2,4-oxadiazol-5-yl)-2-[(1-methylethyl)oxy]-3-pyridinecarbonitrile]
CC(C)Oc1ccc(-c2nc(-c3ccc4c(c3)CCN(C(=O)CNCCO)CC4)no2)cc1C#N.Cl [Example 86, 5-(3-{3-[N-(2-hydroxyethyl)glycyl]-2,3,4,5-tetrahydro-1H-3-benzazepin-7-yl}-1,2,4-oxadiazol-5-yl)-2-[(1-methylethyl)oxy]benzonitrile hydrochloride]
CC(C)Oc1ccc(-c2nc(-c3ccc4c(c3)CCN(C(=O)[C@@H](N)[C@@H](C)O)CC4)no2)cc1C#N [Example 59, 2-[(1-methylethyl)oxy]-5-[3-(3-L-threonyl-2,3,4,5-tetrahydro-1H-3-benzazepin-7-yl)-1,2,4-oxadiazol-5-yl]benzonitrile]
Cc1c(-c2noc(-c3cnc(NC(C)C)c(C#N)c3)n2)ccc2c1CCN(C[C@@H](O)CO)C2.Cl [Example 174, 5-(3-{2-[(2R)-2,3-dihydroxypropyl]-5-methyl-1,2,3,4-tetrahydro-6-isoquinolinyl}-1,2,4-oxadiazol-5-yl)-2-[(1-methylethyl)amino]-3-pyridinecarbonitrile hydrochloride]
